Source: the supplement of paper PMC10849652
The other results are listed elsewhere or left out.

Amino acid sequences for entries named in this document (tags omitted). A change or cut given only in a name is not applied to a line headed by its entry.
UniProt O14526: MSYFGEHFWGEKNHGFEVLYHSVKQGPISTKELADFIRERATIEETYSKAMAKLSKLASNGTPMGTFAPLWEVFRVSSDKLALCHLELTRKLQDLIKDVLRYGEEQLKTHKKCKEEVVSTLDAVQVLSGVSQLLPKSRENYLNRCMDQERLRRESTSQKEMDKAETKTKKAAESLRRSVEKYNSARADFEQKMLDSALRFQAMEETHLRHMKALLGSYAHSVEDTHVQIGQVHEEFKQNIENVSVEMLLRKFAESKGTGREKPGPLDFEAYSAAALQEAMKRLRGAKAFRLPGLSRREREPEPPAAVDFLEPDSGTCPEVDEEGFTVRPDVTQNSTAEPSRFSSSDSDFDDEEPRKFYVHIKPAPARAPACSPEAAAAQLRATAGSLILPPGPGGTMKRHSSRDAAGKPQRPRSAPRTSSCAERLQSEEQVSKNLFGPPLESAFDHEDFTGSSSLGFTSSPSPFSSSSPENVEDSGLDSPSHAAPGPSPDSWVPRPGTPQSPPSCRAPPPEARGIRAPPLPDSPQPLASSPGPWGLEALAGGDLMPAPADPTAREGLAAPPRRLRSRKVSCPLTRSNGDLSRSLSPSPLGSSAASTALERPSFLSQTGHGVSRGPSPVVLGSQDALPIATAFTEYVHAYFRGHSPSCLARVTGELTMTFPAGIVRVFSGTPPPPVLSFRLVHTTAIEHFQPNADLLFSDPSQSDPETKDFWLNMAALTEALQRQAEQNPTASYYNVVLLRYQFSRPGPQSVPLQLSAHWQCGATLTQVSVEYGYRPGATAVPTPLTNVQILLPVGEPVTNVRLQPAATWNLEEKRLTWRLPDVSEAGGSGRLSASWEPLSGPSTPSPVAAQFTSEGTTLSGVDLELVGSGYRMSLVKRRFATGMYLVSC
UniProt Q14517: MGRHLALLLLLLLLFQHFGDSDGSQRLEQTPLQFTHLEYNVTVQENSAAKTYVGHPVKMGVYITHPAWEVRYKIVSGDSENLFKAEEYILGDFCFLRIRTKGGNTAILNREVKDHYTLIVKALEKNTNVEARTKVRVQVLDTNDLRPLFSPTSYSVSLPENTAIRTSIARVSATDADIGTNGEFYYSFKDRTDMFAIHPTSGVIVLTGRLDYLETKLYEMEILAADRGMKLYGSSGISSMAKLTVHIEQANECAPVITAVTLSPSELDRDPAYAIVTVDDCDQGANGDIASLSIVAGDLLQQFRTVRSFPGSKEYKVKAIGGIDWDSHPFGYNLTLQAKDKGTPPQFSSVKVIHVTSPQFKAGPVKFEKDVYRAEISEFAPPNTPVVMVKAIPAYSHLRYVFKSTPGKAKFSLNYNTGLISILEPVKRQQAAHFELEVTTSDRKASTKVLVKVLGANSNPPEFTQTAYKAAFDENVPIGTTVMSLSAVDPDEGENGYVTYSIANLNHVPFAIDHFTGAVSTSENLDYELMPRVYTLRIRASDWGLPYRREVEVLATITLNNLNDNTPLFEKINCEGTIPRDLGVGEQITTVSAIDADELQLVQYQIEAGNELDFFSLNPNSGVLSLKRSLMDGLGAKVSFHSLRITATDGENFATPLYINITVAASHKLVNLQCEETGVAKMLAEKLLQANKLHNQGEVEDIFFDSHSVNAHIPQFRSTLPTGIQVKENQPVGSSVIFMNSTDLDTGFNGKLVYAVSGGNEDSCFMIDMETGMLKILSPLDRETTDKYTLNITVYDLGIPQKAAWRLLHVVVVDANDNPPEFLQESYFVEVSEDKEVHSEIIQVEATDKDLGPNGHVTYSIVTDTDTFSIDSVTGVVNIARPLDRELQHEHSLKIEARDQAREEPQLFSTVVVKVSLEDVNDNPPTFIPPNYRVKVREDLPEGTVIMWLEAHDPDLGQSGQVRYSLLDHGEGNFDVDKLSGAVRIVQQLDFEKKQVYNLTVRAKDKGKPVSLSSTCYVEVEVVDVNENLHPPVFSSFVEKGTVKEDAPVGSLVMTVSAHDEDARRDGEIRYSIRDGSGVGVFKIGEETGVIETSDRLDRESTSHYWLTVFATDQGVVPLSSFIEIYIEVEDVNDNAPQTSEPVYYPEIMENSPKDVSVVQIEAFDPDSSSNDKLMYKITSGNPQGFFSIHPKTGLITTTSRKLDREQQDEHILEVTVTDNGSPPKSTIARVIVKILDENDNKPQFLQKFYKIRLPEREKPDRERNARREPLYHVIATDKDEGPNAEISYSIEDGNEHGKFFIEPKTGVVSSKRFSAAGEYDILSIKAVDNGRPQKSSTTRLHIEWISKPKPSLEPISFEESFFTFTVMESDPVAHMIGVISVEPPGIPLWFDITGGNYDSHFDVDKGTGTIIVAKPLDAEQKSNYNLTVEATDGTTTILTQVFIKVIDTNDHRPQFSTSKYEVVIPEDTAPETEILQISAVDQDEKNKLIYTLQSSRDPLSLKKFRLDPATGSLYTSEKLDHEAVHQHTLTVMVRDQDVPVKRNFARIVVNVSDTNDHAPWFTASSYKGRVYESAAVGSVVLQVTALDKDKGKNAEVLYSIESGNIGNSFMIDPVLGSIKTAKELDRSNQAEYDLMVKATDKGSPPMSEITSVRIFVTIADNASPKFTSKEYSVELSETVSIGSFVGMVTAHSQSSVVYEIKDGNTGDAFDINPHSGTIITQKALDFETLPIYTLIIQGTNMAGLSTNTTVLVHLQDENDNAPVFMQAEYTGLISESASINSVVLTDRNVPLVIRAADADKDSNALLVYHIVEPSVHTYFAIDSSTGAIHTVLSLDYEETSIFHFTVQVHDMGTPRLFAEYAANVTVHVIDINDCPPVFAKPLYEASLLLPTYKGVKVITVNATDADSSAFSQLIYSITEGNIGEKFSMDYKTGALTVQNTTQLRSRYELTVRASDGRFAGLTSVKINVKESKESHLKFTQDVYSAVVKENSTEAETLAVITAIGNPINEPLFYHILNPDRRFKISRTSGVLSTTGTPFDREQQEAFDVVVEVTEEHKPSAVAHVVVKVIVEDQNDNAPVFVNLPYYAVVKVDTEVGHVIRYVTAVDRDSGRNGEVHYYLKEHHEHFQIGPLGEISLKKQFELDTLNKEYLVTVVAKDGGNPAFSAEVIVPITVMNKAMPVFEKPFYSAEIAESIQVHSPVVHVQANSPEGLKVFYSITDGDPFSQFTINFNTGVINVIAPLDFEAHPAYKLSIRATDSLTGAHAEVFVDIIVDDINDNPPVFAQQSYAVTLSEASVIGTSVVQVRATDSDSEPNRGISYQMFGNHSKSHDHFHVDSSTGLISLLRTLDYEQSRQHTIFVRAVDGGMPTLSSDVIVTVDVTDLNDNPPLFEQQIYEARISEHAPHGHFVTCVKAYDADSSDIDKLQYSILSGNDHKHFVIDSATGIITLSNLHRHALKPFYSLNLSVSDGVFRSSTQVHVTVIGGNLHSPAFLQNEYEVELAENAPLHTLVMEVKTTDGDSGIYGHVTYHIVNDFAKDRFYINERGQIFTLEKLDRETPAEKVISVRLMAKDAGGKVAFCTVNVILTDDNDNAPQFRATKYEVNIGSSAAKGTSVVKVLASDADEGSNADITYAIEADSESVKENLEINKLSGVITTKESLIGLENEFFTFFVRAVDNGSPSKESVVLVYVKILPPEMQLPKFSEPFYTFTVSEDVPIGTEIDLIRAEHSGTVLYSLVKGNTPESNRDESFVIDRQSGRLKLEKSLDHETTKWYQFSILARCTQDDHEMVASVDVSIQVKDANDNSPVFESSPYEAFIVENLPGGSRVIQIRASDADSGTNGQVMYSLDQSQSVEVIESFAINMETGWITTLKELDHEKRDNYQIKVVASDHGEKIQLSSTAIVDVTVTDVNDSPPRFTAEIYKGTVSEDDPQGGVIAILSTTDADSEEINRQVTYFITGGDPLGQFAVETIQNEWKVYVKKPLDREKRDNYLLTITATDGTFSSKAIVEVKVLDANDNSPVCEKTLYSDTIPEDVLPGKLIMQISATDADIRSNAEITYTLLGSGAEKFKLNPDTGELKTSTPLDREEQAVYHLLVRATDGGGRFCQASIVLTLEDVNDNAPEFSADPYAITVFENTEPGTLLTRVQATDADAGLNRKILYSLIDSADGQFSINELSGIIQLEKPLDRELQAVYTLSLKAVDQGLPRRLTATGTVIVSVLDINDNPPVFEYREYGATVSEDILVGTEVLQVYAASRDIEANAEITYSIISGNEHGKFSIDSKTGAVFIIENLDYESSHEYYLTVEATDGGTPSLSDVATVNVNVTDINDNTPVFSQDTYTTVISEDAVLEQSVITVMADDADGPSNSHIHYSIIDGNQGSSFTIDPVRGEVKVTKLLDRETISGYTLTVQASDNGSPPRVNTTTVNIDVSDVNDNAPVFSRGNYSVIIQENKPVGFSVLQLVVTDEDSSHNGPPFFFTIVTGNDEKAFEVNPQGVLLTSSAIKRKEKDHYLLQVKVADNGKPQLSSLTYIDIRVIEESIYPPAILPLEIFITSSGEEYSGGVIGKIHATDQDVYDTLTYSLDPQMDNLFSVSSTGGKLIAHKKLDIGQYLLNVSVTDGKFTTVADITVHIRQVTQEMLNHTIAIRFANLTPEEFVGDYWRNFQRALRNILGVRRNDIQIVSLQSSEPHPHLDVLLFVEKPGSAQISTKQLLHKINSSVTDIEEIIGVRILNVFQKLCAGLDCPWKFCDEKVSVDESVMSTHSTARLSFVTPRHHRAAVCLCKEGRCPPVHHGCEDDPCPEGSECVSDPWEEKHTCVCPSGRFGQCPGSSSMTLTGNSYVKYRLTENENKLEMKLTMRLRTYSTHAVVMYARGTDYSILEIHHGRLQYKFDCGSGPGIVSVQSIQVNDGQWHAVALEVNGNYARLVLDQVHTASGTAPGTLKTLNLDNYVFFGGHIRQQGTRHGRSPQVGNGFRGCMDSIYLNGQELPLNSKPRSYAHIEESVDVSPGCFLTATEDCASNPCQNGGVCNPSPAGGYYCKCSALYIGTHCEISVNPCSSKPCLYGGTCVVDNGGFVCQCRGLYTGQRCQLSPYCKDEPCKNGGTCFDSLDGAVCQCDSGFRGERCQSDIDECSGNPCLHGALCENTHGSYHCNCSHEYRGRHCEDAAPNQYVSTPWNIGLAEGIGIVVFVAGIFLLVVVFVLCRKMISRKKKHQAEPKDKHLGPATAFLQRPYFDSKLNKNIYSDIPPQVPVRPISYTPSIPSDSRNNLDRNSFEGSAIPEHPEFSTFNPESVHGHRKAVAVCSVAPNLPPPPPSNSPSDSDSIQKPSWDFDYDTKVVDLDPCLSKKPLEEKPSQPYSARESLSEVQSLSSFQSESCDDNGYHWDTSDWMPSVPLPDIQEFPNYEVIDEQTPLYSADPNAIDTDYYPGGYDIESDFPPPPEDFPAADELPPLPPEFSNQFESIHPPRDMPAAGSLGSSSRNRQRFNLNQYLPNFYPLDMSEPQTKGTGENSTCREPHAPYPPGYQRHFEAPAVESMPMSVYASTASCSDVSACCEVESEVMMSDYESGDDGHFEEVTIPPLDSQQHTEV
UniProt Q6PJ61: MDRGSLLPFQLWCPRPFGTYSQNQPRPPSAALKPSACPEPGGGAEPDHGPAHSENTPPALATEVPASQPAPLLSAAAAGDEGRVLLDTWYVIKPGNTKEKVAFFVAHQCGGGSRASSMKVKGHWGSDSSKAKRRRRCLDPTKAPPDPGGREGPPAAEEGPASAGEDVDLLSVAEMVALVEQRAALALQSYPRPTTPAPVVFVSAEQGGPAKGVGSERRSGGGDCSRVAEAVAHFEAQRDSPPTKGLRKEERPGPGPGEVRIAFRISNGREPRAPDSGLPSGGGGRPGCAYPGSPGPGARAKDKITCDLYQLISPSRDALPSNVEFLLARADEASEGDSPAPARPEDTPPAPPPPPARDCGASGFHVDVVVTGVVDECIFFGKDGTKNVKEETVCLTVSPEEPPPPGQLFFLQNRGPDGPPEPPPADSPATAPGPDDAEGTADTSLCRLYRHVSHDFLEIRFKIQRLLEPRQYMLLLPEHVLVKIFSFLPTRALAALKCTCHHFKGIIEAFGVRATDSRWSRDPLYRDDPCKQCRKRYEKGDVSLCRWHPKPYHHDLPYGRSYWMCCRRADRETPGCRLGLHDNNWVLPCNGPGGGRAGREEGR
UniProt Q96IV6: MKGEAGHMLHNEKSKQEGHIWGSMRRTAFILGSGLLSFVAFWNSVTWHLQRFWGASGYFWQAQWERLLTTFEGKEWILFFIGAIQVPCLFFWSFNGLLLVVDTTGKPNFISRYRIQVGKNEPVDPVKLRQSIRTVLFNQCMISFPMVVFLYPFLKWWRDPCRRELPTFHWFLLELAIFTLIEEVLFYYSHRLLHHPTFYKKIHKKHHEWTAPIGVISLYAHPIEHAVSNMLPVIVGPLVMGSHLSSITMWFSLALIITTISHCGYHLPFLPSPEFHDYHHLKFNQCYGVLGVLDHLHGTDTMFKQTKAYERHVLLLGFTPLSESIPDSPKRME
UniProt Q96NB1: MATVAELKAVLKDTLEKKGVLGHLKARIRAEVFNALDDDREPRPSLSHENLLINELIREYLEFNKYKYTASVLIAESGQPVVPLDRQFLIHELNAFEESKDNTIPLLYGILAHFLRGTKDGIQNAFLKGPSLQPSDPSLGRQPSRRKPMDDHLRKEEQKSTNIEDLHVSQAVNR

Columns and labels:
Assay in all cases: log2 fold change, soluble protein after heating vs DMSO (PISA); higher = thermal stabilisation; K562 lysate, 10 uM; active = over 0.2 and 3.5 SD of the protein, either way, in both replicates (recomputed)
[1] = compound: C#Cc1cccc(Nc2ncnc3cc(OCCOC)c(OCCOC)cc23)c1 [erlotinib]
Method in brief: (§1)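 Soluble protein was defined as the supernatant remaining after 21,000xg for 90 min, following pooling of heated aliquots and adjustment to 0.5% NP-40 at 4°C. Before that, crude K562 extract at 1 mg/mL protein in PBS pH 7.4 with 1 mM MgCl2 was treated with 10 μM compound for 30 min and heated for 3 min across 48°C-58°C. Quantification used TMTpro 16plex LC-MS/MS with channel sums equalised, and values are log-two fold changes in thermal stability relative to solvent controls from duplicates.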

[2] = compound: C/C(=N\NC(=O)C1=CC(=CC=C1)S(=O)(=O)N2CCOCC2)/C3=C(C=CC(=C3)Cl)O
Method in brief: as §1

[3] = compound: C1=CC(=CC=C1C2=NC3=C(N2)C=C(C=C3)C(=O)N)OC4=CC=C(C=C4)Cl
Method in brief: as §1

[4] = compound: C1=CC2=C(C=CC(=C2)/C=C\3/C(=O)NC(=NCC4=CC=CS4)S3)N=C1
Method in brief: as §1

[5] = compound: C1=CC2=NC=CN=C2C=C1/C=C/3\C(=O)NC(=O)S3
Method in brief: as §1

[6] = compound: C1=CC=C(C=C1)C2=NC(=C(N2)C3=CC=NC=C3)C4=CC(=C(C=C4)Cl)O
Method in brief: as §1

[7] = compound: C1=CC=C2C(=C1)C3=NNC4=CC=CC(=C43)C2=O
Method in brief: as §1

[8] = compound: C1CCN(C1)C(=O)NC2=CC=CC(=C2)NC3=NC=C(C(=N3)NCCC4=CN=CN4)Br
Method in brief: as §1

[9] = compound: C1CN(CCC1(CC2=CC=C(C=C2)Cl)N)C3=NC=NC4=C3C=CN4
Method in brief: as §1

[10] = compound: C1COCCN1CCN2C3=CC=CC=C3N=C2NC(=O)C4=CC(=CC=C4)[N+](=O)[O-] [IRAK-1-4 Inhibitor I]
Method in brief: as §1

[11] = compound: C=CC(=O)N1CCC[C@@H](n2nc(-c3ccc(Oc4ccccc4)cc3)c3c(N)ncnc32)C1 [ibrutinib]
Method in brief: as §1

[12] = compound: CC(=O)c1cnc2ccc(-c3cc(Cl)c(O)c(Cl)c3)nc2c1N[C@H]1CC[C@H](CN(C)C)CC1
Method in brief: as §1

[13] = compound: CC(C)(C)Cn1c(N)nc2ccc(-c3[nH]c(C(C)(C)C)nc3-c3ccc(F)cc3)nc21 [ralimetinib]
Method in brief: as §1

[14] = compound: CC(C)(O)CC(=O)NCCn1ccc2ncnc(Nc3ccc(Oc4cccc(C(F)(F)F)c4)c(Cl)c3)c21
Method in brief: as §1

[15] = compound: CC(C)C1=C2N=C(C=C(N2N=C1)NCC3=CC=CC=C3)NCCCCCCN
Method in brief: as §1

[16] = compound: CC1=C(C(CC(=O)N1)C2=CC=C(C=C2)C(F)(F)F)C(=O)NC3=C(C=C4C(=C3)C=NN4)F
Method in brief: as §1

[17] = compound: CC1=C(C2=C(C=C1)C(=O)C3=CC=CC=C3N2CCCN)C
Method in brief: as §1

[18] = compound: CC1=C(C=C(C=C1)NC(=O)C2=CC(=CC=C2)C(C)(C)C#N)NC3=CC4=C(C=C3)N=CN(C4=O)C
Method in brief: as §1

[19] = compound: CC1=C(C=C(C=C1)NC(=O)C2=CC(=CC=C2)N(C)C)NC(=O)C3=CC=C(C=C3)O
Method in brief: as §1

[20] = compound: CC1=CC=C(C=C1)SC2=C3C=C(SC3=CN=C2)C(=O)N
Method in brief: as §1

Measured: log2 fold change

FKBP15 (UniProt Q5T1M5)
inactive: [1] 0.039 | [2] 0.008 | [3] 0.017 | [4] 0.016 | [5] -0.017 | [6] 0.001 | [7] 0.023 | [8] 0.021 | [9] -0.004 | [10] 0.009 | [11] 0.001 | [12] -0.032 | [13] 0.013 | [14] -0.062 | [15] 0.003 | [16] 0.02 | [17] -0.01 | [18] 0.014 | [19] 0.032 | [20] -0.016

FARSB (UniProt Q9NSD9)
inactive: [1] -0.004 | [2] 0.019 | [3] -0.007 | [4] -0.01 | [5] -0.02 | [6] 0.039 | [7] -0.021 | [8] -0.004 | [9] 0.011 | [10] -0.027 | [11] 0.021 | [12] -0.013 | [13] -0.006 | [14] 0.016 | [15] 0.004 | [16] -0.023 | [17] 0.007 | [18] 0.033 | [19] 0.008 | [20] 0.03

FCHO1 (UniProt O14526)
inactive: [1] 0.062 | [2] 0.034 | [3] 0.045 | [4] -0.055 | [5] 0.024 | [6] 0.065 | [7] -0.064 | [8] -0.044 | [9] -0.022 | [10] -0.021 | [11] -0.053 | [12] 0.022 | [13] 0.018 | [14] 0.014 | [15] 0.013 | [16] 0.031 | [17] 0.018 | [18] 0.002 | [19] 0.004 | [20] 0.041

FBXW8 (UniProt Q8N3Y1)
inactive: [1] -0.002 | [2] 0.149 | [3] -0.179 | [4] -0.22 | [5] 0.033 | [6] -0.173 | [7] 0.029 | [8] -0.063 | [9] 0.166 | [10] 0.107 | [11] -0.457 | [12] 0.213 | [13] -0.057 | [14] -0.174 | [15] 0.012 | [16] -0.061 | [19] 0.055 | [20] 0.042

FMNL2 isoform 3 (UniProt Q96PY5)
inactive: [1] -0.02 | [3] -0.064 | [6] 0.083 | [10] -0.092 | [12] -0.048 | [13] -0.02 | [14] 0.185 | [15] 0.065 | [16] -0.056 | [17] 0.071 | [18] 0.116 | [19] 0.048 | [20] -0.003

FAT1 (UniProt Q14517)
inactive: [1] -0.004 | [3] 0.006 | [6] 0.126 | [8] -0.119 | [9] 0.128 | [10] -0.053 | [12] -0.109 | [13] -0.034 | [14] -0.016 | [15] -0.05 | [18] 0.188 | [19] 0.024 | [20] -0.105

FLNA (UniProt H0Y5C6)
inactive: [1] -0.039 | [2] -0.247 | [3] -0.128 | [4] -0.036 | [7] 0.202 | [12] 0.11 | [15] -0.106 | [17] -0.122 | [20] 0.01

FBXO46 (UniProt Q6PJ61)
inactive: [2] -0.044 | [4] 0.089 | [5] -0.008 | [6] 0.004 | [7] 0.126 | [8] -0.124 | [9] -0.016 | [10] -0.056 | [11] 0.001 | [12] -0.053 | [13] 0.051 | [14] 0.087 | [16] 0.026 | [17] 0.002 | [18] -0.009 | [19] 0.053 | [20] -0.043

FIP1L1 isoform 3 (UniProt Q6UN15)
inactive: [1] 0.035 | [3] 0.194 | [6] 0.018 | [8] 0.009 | [9] 0.171 | [10] 0.028 | [12] -0.152 | [13] -0.03 | [14] -0.095 | [15] -0.049 | [16] -0.042 | [18] -0.169 | [19] -0.098 | [20] -0.269

FAXDC2 (UniProt Q96IV6)
inactive: [1] -0.02 | [3] -0.063 | [8] 0.097 | [9] 0.066 | [12] -0.088 | [15] -0.032 | [17] -0.103 | [18] 0.098 | [20] -0.274

FOPNL (UniProt Q96NB1)
inactive: [2] -0.038 | [4] 0.11 | [5] -0.045 | [6] 0.001 | [7] 0.039 | [8] -0.007 | [9] -0.05 | [10] 0.01 | [11] 0.165 | [12] -0.081 | [13] -0.008 | [14] -0.042 | [16] 0.091 | [17] 0.141 | [18] 0.009 | [19] 0.077 | [20] -0.104

FLT4 (UniProt P35916)
inactive: [1] 0.047 | [2] 0.036 | [3] 0.038 | [4] 0.039 | [5] 0.075 | [6] 0.046 | [7] 0.044 | [8] -0.097 | [9] 0.087 | [10] -0.029 | [11] 0.062 | [12] 0.064 | [13] 0.012 | [14] -0.005 | [15] -0.057 | [17] 0.038 | [19] -0.019 | [20] 0.005
